Data taken from PubChem BioAssay AID248 (DTP/NCI, 2004).
The list does not hold the whole screen: it covers a few groups of compounds. Other doses and runs of a compound may be missing. T/C: endpoint of the treated group in % of that of the vehicle group. For survival time, this PubChem deposit counts one and a half times the control or more as active, and values a quarter to a half above the control carry no call in these data; other NCI protocols may use other cut-offs. Some T/C values are marked as having no survivor count here; that says nothing about deaths at the dose. Schedules are NCI's codes, taken here to give the interval after Q, in days (D) or hours (H), and the number of doses after X. Counts like (3×) give the number of equal values in this list. Some doses were run more than once; the values are given in rising order.

Tested on: L1210 leukemia ip in BDF1 mice, survival T/C
Test: NCI In Vivo Anticancer Drug Screen. Data for tumor model L1210 Leukemia (intraperitoneal) in B6D2F1 (BDF1) mice
Details: T/C endpoint: mean survival time, higher T/C = longer survival
[1] = dose: 100.0 mg/kg/injection, schedule: Q04DX003 (ip), vehicle: Klucel (hydroxypropylcellulose) (HPC)
[2] = dose: 200.0 mg/kg/injection, schedule: Q04DX003 (ip), vehicle: Klucel (hydroxypropylcellulose) (HPC)
[3] = dose: 400.0 mg/kg/injection, schedule: Q04DX003 (ip), vehicle: Klucel (hydroxypropylcellulose) (HPC)
[4] = dose: 3.0 mg/kg/injection, schedule: Q01DX001 (ip), vehicle: saline
[5] = dose: 3.0 mg/kg/injection, schedule: Q01DX009 (ip), vehicle: saline
[6] = dose: 6.0 mg/kg/injection, schedule: Q01DX001 (ip), vehicle: saline
[7] = dose: 2.6 mg/kg/injection, schedule: Q01DX009 (ip), vehicle: saline

BrCCN(CCBr)c1ccc2c(c1)Cc1ccccc1-2
T/C (dose: 3.12 mg/kg/injection, schedule: Q01DX009 (ip), vehicle: Klucel (hydroxypropylcellulose) (HPC)): 162 % of control [survivor count not shown]
T/C (dose: 3.13 mg/kg/injection, schedule: Q01DX009 (ip), vehicle: Klucel (hydroxypropylcellulose) (HPC)): 119 % of control [survivor count not shown]
T/C (dose: 6.25 mg/kg/injection, schedule: Q01DX009 (ip), vehicle: Klucel (hydroxypropylcellulose) (HPC)): 108 [survivor count not shown] and 113 % of control [survivor count not shown]
T/C (dose: 12.5 mg/kg/injection, schedule: Q01DX009 (ip), vehicle: Klucel (hydroxypropylcellulose) (HPC)): 111 [survivor count not shown] and 118 % of control [survivor count not shown]
T/C (dose: 25.0 mg/kg/injection, schedule: Q01DX009 (ip), vehicle: Klucel (hydroxypropylcellulose) (HPC)): 119 [survivor count not shown] and 178 % of control [survivor count not shown]
T/C (dose: 50.0 mg/kg/injection, schedule: Q01DX009 (ip), vehicle: Klucel (hydroxypropylcellulose) (HPC)): 121 [survivor count not shown] and 131 % of control [survivor count not shown]
T/C [1]: 126 % of control [survivor count not shown]
T/C (dose: 132.0 mg/kg/injection, schedule: Q04DX003 (ip), vehicle: saline with Tween-80): 107 % of control [survivor count not shown]
T/C [2]: 134 % of control [survivor count not shown]
T/C (dose: 200.0 mg/kg/injection, schedule: Q04DX003 (ip), vehicle: saline with Tween-80): 99 % of control [survivor count not shown]
T/C (dose: 300.0 mg/kg/injection, schedule: Q04DX003 (ip), vehicle: saline with Tween-80): 93 % of control [survivor count not shown]
T/C [3]: 130 % of control [survivor count not shown]

CC(=O)c1ccc(N2CCC(OC(=O)C(O)(c3ccccc3)c3ccccc3)CC2)cc1
T/C [1]: 98 % of control [survivor count not shown]
T/C [2]: 101 % of control [survivor count not shown]
T/C [3]: 101 % of control [survivor count not shown]

NC(Cc1ccc(O)c(N(CCCl)CCCl)c1)C(=O)O (stereo not given)
T/C (dose: 0.02 mg/kg/injection, schedule: Q01DX009 (ip), vehicle: saline): 125 % of control [survivor count not shown]
T/C (dose: 0.05 mg/kg/injection, schedule: Q01DX009 (ip), vehicle: saline): 144 % of control [survivor count not shown]
T/C (dose: 0.1 mg/kg/injection, schedule: Q01DX009 (ip), vehicle: saline): 150 % of control [survivor count not shown]
T/C (dose: 0.19 mg/kg/injection, schedule: Q01DX009 (ip), vehicle: saline): 110 % of control [survivor count not shown]
T/C (dose: 0.2 mg/kg/injection, schedule: Q01DX009 (ip), vehicle: saline): 157 % of control [survivor count not shown]
T/C (dose: 0.37 mg/kg/injection, schedule: Q01DX001 (ip), vehicle: saline): 101 [survivor count not shown] and 132 % of control [survivor count not shown]
T/C (dose: 0.37 mg/kg/injection, schedule: Q01DX009 (ip), vehicle: saline): 191 % of control [survivor count not shown]
T/C (dose: 0.75 mg/kg/injection, schedule: Q01DX001 (ip), vehicle: saline): 104 [survivor count not shown] and 134 % of control [survivor count not shown]
T/C (dose: 0.75 mg/kg/injection, schedule: Q01DX009 (ip), vehicle: saline): 176 [survivor count not shown] and 218 % of control [survivor count not shown]
T/C (dose: 1.5 mg/kg/injection, schedule: Q01DX001 (ip), vehicle: saline): 121 [survivor count not shown] and 134 % of control [survivor count not shown]
T/C (dose: 1.5 mg/kg/injection, schedule: Q01DX009 (ip), vehicle: saline): 105 [survivor count not shown] and 178 % of control [survivor count not shown]
T/C [4]: 123 [survivor count not shown], 150 [survivor count not shown], 161 [survivor count not shown], 211 % of control [survivor count not shown]
T/C [5]: 98 % of control [survivor count not shown]
T/C [6]: 134 [survivor count not shown] and 135 % of control [survivor count not shown]
T/C (dose: 12.0 mg/kg/injection, schedule: Q01DX001 (ip), vehicle: saline): 140 % of control [survivor count not shown]
T/C (dose: 24.0 mg/kg/injection, schedule: Q01DX001 (ip), vehicle: saline): 251 % of control [survivor count not shown]

ClCCN(CCCl)CCc1ccccc1
T/C (dose: 1.8 mg/kg/injection, schedule: Q01DX009 (ip), vehicle: saline): 104 % of control [survivor count not shown]
T/C [7]: 104 % of control [survivor count not shown]
T/C (dose: 3.6 mg/kg/injection, schedule: Q01DX015 (ip), vehicle: saline): 105 % of control [survivor count not shown]
T/C (dose: 4.0 mg/kg/injection, schedule: Q01DX009 (ip), vehicle: saline): 107 % of control [survivor count not shown]
T/C (dose: 5.5 mg/kg/injection, schedule: Q01DX015 (ip), vehicle: saline): 89 % of control [survivor count not shown]
T/C (dose: 6.0 mg/kg/injection, schedule: Q01DX009 (ip), vehicle: saline): 112 % of control [survivor count not shown]
T/C (dose: 11.0 mg/kg/injection, schedule: Q01DX001 (ip), vehicle: saline): 108 [survivor count not shown], 113 [survivor count not shown], 117 % of control [survivor count not shown]
T/C (dose: 12.5 mg/kg/injection, schedule: Q01DX001 (ip), vehicle: saline): 122 % of control [survivor count not shown]
T/C (dose: 16.6 mg/kg/injection, schedule: Q01DX001 (ip), vehicle: saline): 109 [survivor count not shown] (2×) and 125 % of control [survivor count not shown]
T/C (dose: 25.0 mg/kg/injection, schedule: Q01DX001 (ip), vehicle: saline): 127 [survivor count not shown] and 134 % of control [survivor count not shown]
T/C (dose: 37.5 mg/kg/injection, schedule: Q01DX001 (ip), vehicle: saline): 114 % of control [survivor count not shown]

OCC#CCN(CCCl)CCCl
T/C (dose: 0.3 mg/kg/injection, schedule: Q01DX001 (ip), vehicle: saline): 106 % of control [survivor count not shown]
T/C (dose: 0.6 mg/kg/injection, schedule: Q01DX001 (ip), vehicle: saline): 110 % of control [survivor count not shown]
T/C (dose: 0.7 mg/kg/injection, schedule: Q01DX009 (ip), vehicle: saline): 129 % of control [survivor count not shown]
T/C (dose: 1.1 mg/kg/injection, schedule: Q01DX009 (ip), vehicle: saline): 137 % of control [survivor count not shown]
T/C (dose: 1.3 mg/kg/injection, schedule: Q01DX001 (ip), vehicle: saline): 117 % of control [survivor count not shown] (2×)
T/C (dose: 1.3 mg/kg/injection, schedule: Q01DX009 (ip), vehicle: saline): 121 % of control [survivor count not shown]
T/C (dose: 1.7 mg/kg/injection, schedule: Q01DX009 (ip), vehicle: saline): 116 [survivor count not shown], 117 [survivor count not shown], 151 % of control [survivor count not shown]
T/C (dose: 2.0 mg/kg/injection, schedule: Q01DX001 (ip), vehicle: saline): 117 % of control [survivor count not shown]
T/C (dose: 2.0 mg/kg/injection, schedule: Q01DX009 (ip), vehicle: saline): 131 % of control [survivor count not shown]
T/C (dose: 2.6 mg/kg/injection, schedule: Q01DX001 (ip), vehicle: saline): 119 [survivor count not shown], 128 [survivor count not shown], 132 % of control [survivor count not shown]
T/C [7]: 87 [survivor count not shown] and 88 % of control [survivor count not shown]
T/C [4]: 126 % of control [survivor count not shown] (2×)
T/C [5]: 129 % of control [survivor count not shown]
T/C (dose: 4.0 mg/kg/injection, schedule: Q01DX001 (ip), vehicle: saline): 132 [survivor count not shown] and 136 % of control [survivor count not shown]
T/C (dose: 4.5 mg/kg/injection, schedule: Q01DX001 (ip), vehicle: saline): 126 % of control [survivor count not shown]
T/C (dose: 4.5 mg/kg/injection, schedule: Q01DX009 (ip), vehicle: saline): 88 % of control [survivor count not shown]
T/C [6]: 86 [survivor count not shown], 139 [survivor count not shown], 150 % of control [survivor count not shown]
T/C (dose: 9.0 mg/kg/injection, schedule: Q01DX001 (ip), vehicle: saline): 90 [survivor count not shown] and 129 % of control [survivor count not shown]
